No constants are given. Whether binding was seen depends on the method and setting. Some binding calls cover weakened binding; strength is not graded here.
Molecular target: Replication Protein A (RPA), S. cerevisiae heterotrimer of RPA70, RPA32 and RPA14 (S. cerevisiae) (UniProt P22336+P26754+P26755)
Experiment: AUC; sedimentation velocity as a14; Rtt105^Cy5, RPA and Rad52 with an equimolar amount of (dT)35; both purified

Sequences of proteins named here, by UniProt entry; tags and fusion partners are left off. A change or cut given only in a name is not applied to a line headed by its entry.
UniProt P22336: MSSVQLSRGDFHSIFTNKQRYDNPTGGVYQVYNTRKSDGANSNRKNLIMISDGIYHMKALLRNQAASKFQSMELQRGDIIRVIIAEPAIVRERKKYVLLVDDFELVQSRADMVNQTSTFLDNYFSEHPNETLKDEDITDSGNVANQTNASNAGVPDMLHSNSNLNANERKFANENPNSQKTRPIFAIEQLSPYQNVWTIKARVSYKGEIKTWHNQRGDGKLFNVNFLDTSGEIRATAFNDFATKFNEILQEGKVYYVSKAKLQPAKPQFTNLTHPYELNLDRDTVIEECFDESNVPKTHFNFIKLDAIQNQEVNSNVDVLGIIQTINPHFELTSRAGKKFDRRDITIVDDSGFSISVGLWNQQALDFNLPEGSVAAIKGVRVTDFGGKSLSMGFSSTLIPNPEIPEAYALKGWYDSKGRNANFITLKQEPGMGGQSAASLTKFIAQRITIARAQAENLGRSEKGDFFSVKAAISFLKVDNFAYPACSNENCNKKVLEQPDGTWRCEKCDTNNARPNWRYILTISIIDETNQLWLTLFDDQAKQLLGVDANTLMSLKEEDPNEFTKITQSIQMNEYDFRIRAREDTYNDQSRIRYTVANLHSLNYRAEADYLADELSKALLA
UniProt P26754: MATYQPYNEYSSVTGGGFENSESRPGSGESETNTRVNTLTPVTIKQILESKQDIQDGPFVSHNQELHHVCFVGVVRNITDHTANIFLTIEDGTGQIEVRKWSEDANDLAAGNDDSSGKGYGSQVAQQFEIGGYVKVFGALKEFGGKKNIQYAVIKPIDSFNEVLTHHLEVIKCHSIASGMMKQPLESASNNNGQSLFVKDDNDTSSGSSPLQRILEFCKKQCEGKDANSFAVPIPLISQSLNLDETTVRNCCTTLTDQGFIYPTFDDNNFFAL
UniProt P26755: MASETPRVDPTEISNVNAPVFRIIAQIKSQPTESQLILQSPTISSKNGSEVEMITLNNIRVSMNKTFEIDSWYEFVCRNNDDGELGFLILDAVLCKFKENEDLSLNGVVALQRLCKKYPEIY

binding: binds weakly
B1: Rtt105^Cy5 (Rtt105^C13S labeled with Cy5 on Cys-12) (natural protein, S. cerevisiae, UniProt P40063 1-208, looked up)
chain: MYSNHNLNSDDCSFDWNEEKAAELQRTGVSFDRSLTPQSLRTSTRRLSEENKQQSGTMHIDTSPSVVSDIISSRRDRSQDFFGPHSSSPIAPSERQRADQRSRLESMRLTRRRDKMTKVRGGLEKMEEMIMQGEHLREMQRLKQEAQKNALPSDMAEYMEWQNNEDLEDDELLAFIEKQETYKNELEHFLNNANKNVYENNSYPNSHT
modifications: Cy5 (maleimide chemistry) on Cys-12
notes: Rtt105, S. cerevisiae, single-Cys version; also called Cy5-labeled Rtt105; fluorescent Rtt105; source: E. coli, purified similar to the wild-type protein, labeled with Cy5-maleimide

Reference: article PMC9440123, “Rtt105 regulates RPA function by configurationally stapling the flexible domains” (Nature Communications, 2022)
